Measurements: paper PMC3988186

Chains of the proteins cited; added tags and fusions are not shown.
UniProt P32121, whole entry: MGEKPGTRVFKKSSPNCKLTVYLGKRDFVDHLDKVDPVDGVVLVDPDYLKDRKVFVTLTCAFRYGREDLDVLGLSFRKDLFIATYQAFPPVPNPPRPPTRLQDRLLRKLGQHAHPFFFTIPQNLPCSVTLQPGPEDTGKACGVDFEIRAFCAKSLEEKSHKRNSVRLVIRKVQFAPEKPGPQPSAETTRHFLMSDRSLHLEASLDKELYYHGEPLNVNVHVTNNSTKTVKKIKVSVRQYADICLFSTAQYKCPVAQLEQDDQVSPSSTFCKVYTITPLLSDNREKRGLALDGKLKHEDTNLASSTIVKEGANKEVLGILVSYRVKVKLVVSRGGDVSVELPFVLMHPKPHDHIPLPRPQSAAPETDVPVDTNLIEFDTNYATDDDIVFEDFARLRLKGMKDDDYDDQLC

Legend:
[1] = target: beta-arrestin 2 (endogenous, K562 cells) (Homo sapiens (K562 cell line)) (UniProt P32121); assay: streptavidin pull-down + immunoblot; details: 200 nM chimera internalized by K562 cells 24 h, then lysed; 2'-F pyrimidines in RNA strand; Kd assay buffer not stated separately; selection buffer F: 20 mM HEPES pH 7.4, 150 mM NaCl, 1 mM CaCl2, 1 mM MgCl2, 0.01% BSA, 37 C; protein in an extract; label: 5' biotin (maleimide) on …
[2] = target: beta-arrestin 2 (endogenous, K562 cells) (Homo sapiens (K562 cell line)) (UniProt P32121); assay: anti-beta-arrestin 2 IP + northern blot; details: 200 nM chimera internalized by K562 cells 6 h, then lysed; 2'-F pyrimidines in RNA strand; Kd assay buffer not stated separately; selection buffer F: 20 mM HEPES pH 7.4, 150 mM NaCl, 1 mM CaCl2, 1 mM MgCl2, 0.01% BSA, 37 C; protein in an extract

Q: Does “GGGAGGACGAUGCGGAUCCUCGUCCCGUCACGGCAGAACCACGUCAGGCCUUCAACAGACGACUCGCUGAGGAUCCGAGA / TGGTGGTGGTGGTTGTGGTGGTGGTGG [nucleolin aptamer-beta-arr2A3 chimera, 5'-biotin]” bind [1]?
A: binds

Q: Does “GGGAGGACGAUGCGGAUCCUCGUCCCGUCACGGCAGAACCACGUCAGGCCUUCAACAGACGACUCGCUGAGGAUCCGAGA / TGGTGGTGGTGGTTGTGGTGGTGGTGG [nucleolin aptamer-beta-arr2A3 chimera, unlabeled]” bind [2]?
A: binds

The exact form of at least one protein or probe is not confirmed. At least one result comes from cells or an extract, where the contact may be indirect.
